Source: PubChem BioAssay AID493014 (National Center for Advancing Translational Sciences (NCATS), 2011)
This is one part of the list. The main result of the screen is listed elsewhere. These columns were measured beside it and carry no call. Compounds called inactive in the main read-out are mostly missing here. Words in brackets tell the shape of the fitted curve; partial curves, single points and poor fits give uncertain potencies.

Test: qHTS Assay to Find Inhibitors of Chronic Active B-Cell Receptor Signaling
Conditions: ABC-DLBCL IkBa-CBG/CBR reporter, luminescence ratio (green luciferase fused to IkBa over red control in TMD8 lymphoma cells), 4 h
Procedure, shortened: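 TMD8 ABC-DLBCL cells carrying doxycycline-inducible green luciferase fused to IkappaBalpha plus unfused red luciferase were exposed to compounds (up to 46 uM) for 4 hrs at 37C. Activity came from the overlap-corrected green/red luminescence ratio.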

[1] = measured here: CBR red luminescence, cell number
[2] = measured here: IkBa-CBG green luminescence

SMILES	AC50 [1]	AC50 [2]
CCN(CC)C(=O)c1ccc2c(c1)nnn2C	1.64 µM [rising, partial curve, poor fit]	–
COc1cc2cc(C(=O)N3CCc4ccccc4C3)[nH]c2cc1OC	1.12 µM [rising, full curve]	–
Cc1ccc(NC(=O)CSc2nnc(CNC(=O)c3cccs3)o2)cc1	14.1 µM [rising, single point]	–
OCCC1CN(Cc2nc3c(s2)CCCC3)CCN1CCc1ccccc1 (stereo unspecified)	6.31 µM [rising, single point]	–
Cc1ccc(OCC(=O)N2CCc3ccccc3C2)c(Br)c1	7.08 µM [rising, partial curve]	–
CC(=O)N1CCc2cc(S(=O)(=O)NC(CC(C)C)C(=O)Nc3cc(C)ccn3)ccc21 (stereo unspecified)	32.6 µM [rising, single point]	–
Cc1cc(SCC(=O)c2cccs2)nc2c(C)cccc12	2.51 µM [rising, full curve, poor fit]	–
Cc1ccc(N2C(=O)CS/C2=N\C(=S)Nc2ccccc2)cc1	2.24 µM [falling, full curve, poor fit]	3.16 µM [falling, single point]
COc1c(OC)c(O)c2c(=O)c(O)c(-c3ccccc3)oc2c1OC	22.4 µM [falling, partial curve, poor fit]	–
Cc1cccc(C)c1OCc1cc(C(=O)NCC2CC2)no1	35.5 µM [rising, single point]	–
COc1cc(C(=O)NCc2ccco2)c(Br)c(OC)c1OC	28.2 µM [falling, single point]	–
CCOC(=O)N1CCN(CC(O)c2c[nH]c3ccccc23)CC1 (stereo unspecified)	35.5 µM [falling, partial curve, poor fit]	–
CN(C)c1ccc(NC(=O)c2cccc(N3C(=O)CCC3=O)c2)cc1	8.91 µM [falling, partial curve]	–
COc1cc(/C=C2\N=C(c3ccccc3)NNC2=O)cc(OC)c1OC	12.6 µM [rising, partial curve]	11.2 µM [falling, partial curve]
NNC(=O)c1sc(-c2ccccc2)cc1N	7.94 µM [rising, partial curve]	–
COCCNC(=O)COC(=O)/C=C/c1cnc2ccccc2n1	35.5 µM [falling, single point]	–
COC(=O)c1cc(CSc2ncnc3sccc23)oc1C	35.5 µM [falling, partial curve, poor fit]	–
COc1ccc(OC)c(Nc2nc(-c3sc(C)nc3C)cs2)c1	14.1 µM [falling, single point]	–
O=C(Nc1ccc(Cl)cc1Cl)NC1CCCC1	0.251 µM [rising, full curve, poor fit]	–
Cc1ccc(-c2csc3ncnc(-n4nnc5ccccc54)c23)cc1	18.4 µM [rising, partial curve, poor fit]	23.1 µM [falling, single point]
CCNc1nc(-c2ccc(Cl)cc2)cs1	1.12 µM [rising, full curve, poor fit]	–

3 entries drawn at random from the list so far:
SMILES	AC50 [1]	AC50 [2]
Cc1ccc(NC(=O)CSc2nnc(CNC(=O)c3cccs3)o2)cc1	14.1 µM [rising, single point]	–
Cc1cc(SCC(=O)c2cccs2)nc2c(C)cccc12	2.51 µM [rising, full curve, poor fit]	–
OCCC1CN(Cc2nc3c(s2)CCCC3)CCN1CCc1ccccc1 (stereo unspecified)	6.31 µM [rising, single point]	–

Next part:

SMILES	AC50 [1]	AC50 [2]
COc1ccc(/C=C/C(=O)c2ccncc2)c2ccccc12	29.1 µM [rising, single point]	20.6 µM [falling, single point]
C=CCN(c1ccccc1)S(=O)(=O)c1ccc(Cl)c(C(=O)OCC(=O)NCCCN2CCCC2=O)c1	11.2 µM [falling, single point]	–
O=C(CCc1ccccc1)NN1C(=O)C2C3C=CC(O3)C2C1=O (stereo unspecified)	35.5 µM [falling, single point]	–
Nc1cccc(C(=O)Nc2ccc3nc(-c4cccnc4)[nH]c3c2)c1	20.6 µM [falling, partial curve, poor fit]	–
O=C1N=C(N2CCOCC2)S/C1=C/c1ccc(-c2ccccc2Cl)o1	3.66 µM [rising, full curve, poor fit]	–
COc1cc2c(cc1NC(=O)C(C)OC(=O)C1CC(=O)N(Cc3ccco3)C1)oc1ccccc12 (stereo unspecified)	29.1 µM [falling, single point]	–
COc1cccc(-c2nnc(NC(=O)c3ccco3)s2)c1	3.16 µM [falling, full curve]	–
O=C(NCCO)c1ccc2[nH]c3ccccc3c2c1	4.11 µM [rising, single point]	5.62 µM [rising, partial curve, poor fit]
Cn1c2ccccc2c2cc(C(=O)N3CCOCC3)sc21	1.12 µM [rising, full curve]	–
O=[N+]([O-])c1ccc(O)c(/C=N\N=C2c3ccccc3-c3ccccc32)c1	0.461 µM [rising, full curve]	–
COc1ccc(C(=O)NC(C)C2CC3CCC2C3)cc1 (stereo unspecified)	14.1 µM [rising, partial curve, poor fit]	–
Cc1ccc(NCCC(=O)c2ccc(Cl)cc2)cc1	0.631 µM [falling, full curve, poor fit]	–
N#Cc1ccc(S(=O)(=O)N2CCC(C(=O)Nc3cccc(C(=O)NC4CC4)c3)CC2)cc1	1.3 µM [rising, full curve, poor fit]	–
CNC(=O)c1ccccc1Sc1cccc2cccc(C(=O)O)c12	14.1 µM [rising, single point]	–
NC(=S)NC(=O)/C=C/c1ccccc1	8.91 µM [falling, single point]	–
C/C=C/c1ccc(OCC(=O)OCC(=O)Nc2c(C)nn(-c3ccccc3)c2C)c(OC)c1	0.00366 µM [rising, full curve, poor fit]	–
C/C(Cn1nnc([N+](=O)[O-])n1)=N\NC(=O)c1ccc(O)cc1	1.12 µM [falling, full curve]	–
O=C(c1ccc2nc(-c3ccco3)c(-c3ccco3)nc2c1)N1CCN(c2ccccc2)CC1	16.4 µM [falling, single point]	–
O=C(Nc1ccccc1C(F)(F)F)c1cc(-c2cccc(O)c2)on1	17.8 µM [falling, partial curve, poor fit]	–
CCc1[nH]nc(C(=O)NC2CCCc3c2cnn3-c2cc(C)cc(C)c2)c1C (stereo unspecified)	35.5 µM [falling, single point]	–
